Measured values as given in patent US20140010756A1.
These are yes or no findings as the source states them, for the method shown. Some binding calls cover weakened binding; strength is not graded here.

Chains of the proteins cited; added tags and fusions are not shown. Lines headed by an entry give the natural chain unless they say otherwise; changes in a name come on top.
UniProt P14207: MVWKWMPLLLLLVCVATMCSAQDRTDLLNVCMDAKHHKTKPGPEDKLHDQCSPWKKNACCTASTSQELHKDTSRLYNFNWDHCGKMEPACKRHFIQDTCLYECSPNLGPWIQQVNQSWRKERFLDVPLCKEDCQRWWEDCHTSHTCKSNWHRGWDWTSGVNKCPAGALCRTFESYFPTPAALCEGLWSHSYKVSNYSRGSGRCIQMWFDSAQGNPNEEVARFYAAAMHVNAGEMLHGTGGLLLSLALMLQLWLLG

Target: human folate receptor β (FRβ) (human) (UniProt P14207)
Assay: hybridoma antibodies selected by reactivity with FRβ-expressing cells (human FRβ on mouse B300-19 cells); reactivity analysed by flow cytometry

- binding: binds
B1: anti-human FRβ mouse monoclonal antibody 94b (antibody, mouse IgG1, V domains shown)
VH: EVQLQQSGAELVKPGASVRLSCTASGFNIKDTYMYWVKQRPEQGLEWIGRLDPANGNTRYDPKFQGKATITSDTSSNTAYLQLSSLTSEDTAVYYCAGDYPIIDYWGQGTTLTVSS
VL: DIVMSQSPSSLAVSAGEKVTMSCKSSQSLLNSRTRKTYLAWYQQKPGQSPKLLIYWASTRESGVPDRFTGSGSGTEFTLTISSVQAEDLAVYYCKQSYNLWTFGGGTKLEIKR
